Test results reported in publication PMC7279049.
These are yes or no findings as the source states them, for the method shown. Binding seen in cells or lysates may run through a third protein. A result given as binding can be weak or reduced; the word gives no strength.

Biological target: EDEM1 mutant lacking the IDR (∆-EDEM1)
Experiment: co-IP; HEK293T overexpressing empty vector, EDEM1 or ∆-EDEM1, with or without 30 µM kifunensine overnight; CHAPS buffer; immunoprecipitation with antibodies for EDEM1, SEL1L, OS-9 or XTP3-B, Western blot for EDEM1, SEL1L, OS-9 and XTP3-B (Figure 3B-E; control siRNA samples of Figure A1J)

binding: binds
B1: XTP3-B (ERLEC1) (protein, UniProt Q96DZ1 34-483)
chain: LPQLSDDIPFRVNWPGTEFSLPTTGVLYKEDNYVIMTTAHKEKYKCILPLVTSGDEEEEKDYKGPNPRELLEPLFKQSSCSYRIESYWTYEVCHGKHIRQYHEEKETGQKINIHEYYLGNMLAKNLLFEKEREAEEKEKSNEIPTKNIEGQMTPYYPVGMGNGTPCSLKQNRPRSSTVMYICHPESKHEILSVAEVTTCEYEVVILTPLLCSHPKYRFRASPVNDIFCQSLPGSPFKPLTLRQLEQQEEILRVPFRRNKEEDLQSTKEERFPAIHKSIAIGSQPVLTVGTTHISKLTDDQLIKEFLSGSYCFRGGVGWWKYEFCYGKHVHQYHEDKDSGKTSVVVGTWNQEEHIEWAKKNTARAYHLQDDGTQTVRMVSHFYGNGDICDITDKPRQVTVKLKCKESDSPHAVTVYMLEPHSCQYILGVESPVICKILDTADENGLLSLPN
